The target of the assay is wild type gamma-prefoldin (UniProt Q58064). Briefly: multimodal chromatography.

No constants are given. Whether binding was seen depends on the method and setting. Some entries that bind do so weakly or less than the wild type.

B1: wild type gamma-prefoldin (protein, UniProt Q58064 1-147)
chain: MVNEVIDINEAVRAYIAQIEGLRAEIGRLDATIATLRQSLATLKSLKTLGEGKTVLVPVGSIAQVEMKVEKMDKVVVSVGQNISAELEYEEALKYIEDEIKKLLTFRLVLEQAIAELYAKIEDLIAEAQQTSEEEKAEEEENEEKAE
For B1, the binding entry is reported as “binds”.

Values taken from doi:10.1101/2022.08.21.504681.
